Data as given in PubChem BioAssay AID504774 (Drosophila RNAi Screening Center, 2011)
Purpose: 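Fly genes whose loss alters survival after alkylation damage to DNA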 (primary screen). System: Drosophila Kc167 cells. Knock-down reagent: long dsRNA against Drosophila genes, about 0.25 µg dsRNA per well. Time to read-out: about 6 days: 3 days knock-down, then 3 days with or without MMS. Treatment: methyl methanesulphonate 0.004% (w/v) for 3 days after knock-down. Detection: 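Viability in wells given MMS, read as ATP luminescence, normalised by quantiles plate by plate and averaged across replicates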. Direction: mean viability with MMS and viability with MMS: higher = more surviving cells after MMS.
The screen tested about 23,000 reagents; shown is a random part of those with a known target gene and a result. 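Values are quantile-normalised luminescence on an arbitrary scale; higher means more cells surviving MMS.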 The numbers tell different reagents against one gene apart. A plus sign joins genes that one reagent is predicted to hit. Not all columns of the deposit are shown.

| Gene | reagent no. | mean viability with MMS | viability with MMS, replicate 1 |
| --- | --- | --- | --- |
| CG17746 (GeneID 38400) | 1 | 3.68e6 | 4.15e6 |
| CG17746 (GeneID 38400) | 2 | 3.62e6 | 4.09e6 |
| RpL3 + CG6693 | 1 | 3.46e6 | 3.87e6 |
| CG34136 (GeneID 4379892) | 1 | 3.71e6 | 4.14e6 |
| Aduk (GeneID 41112) | 1 | 3.37e6 | 3.85e6 |
| CG13077 (GeneID 35252) | 1 | 3.53e6 | 3.98e6 |
| CG10654 (GeneID 39428) | 1 | 3.52e6 | 4.11e6 |
| CG10332 (retired record) + IM18 | 1 | 3.70e6 | 4.29e6 |
| CG1894 (GeneID 43378) | 1 | 3.56e6 | 4.02e6 |
| CG8708 (GeneID 35792) | 1 | 3.56e6 | 4.10e6 |
| Su(var)3-9 (GeneID 41483) | 1 | 3.55e6 | 3.99e6 |
| CG4627 (GeneID 36457) | 1 | 3.56e6 | 3.87e6 |
| AIMP1 (GeneID 35892) | 1 | 3.68e6 | 4.06e6 |
| zetaTry (GeneID 36216) | 1 | 3.40e6 | 4.06e6 |
| dmGlut (GeneID 47253) | 1 | 3.33e6 | 3.67e6 |
| MED26 (GeneID 43816) | 1 | 3.00e6 | 3.61e6 |
| MED26 (GeneID 43816) | 2 | 2.83e6 | 3.62e6 |
| MED26 (GeneID 43816) | 3 | 2.73e6 | 3.61e6 |
| Brd (GeneID 39620) | 1 | 3.60e6 | 4.07e6 |
| CCT6 (GeneID 32518) | 1 | 3.22e6 | 3.77e6 |
| RhoGAP5A (GeneID 31473) | 1 | 3.54e6 | 4.20e6 |
| CG12099 (GeneID 38181) | 1 | 3.53e6 | 4.00e6 |
| fzo (GeneID 42745) | 1 | 3.62e6 | 4.12e6 |
| PIG-U (GeneID 34185) | 1 | 3.35e6 | 3.77e6 |
| mirr (GeneID 39441) | 1 | 3.50e6 | 4.08e6 |
| 140up (GeneID 41720) | 1 | 3.52e6 | 3.99e6 |

As entered above.
RhoGAP5A (GeneID 31473), viability with MMS, replicate 1 → 4.20e6
CG17746 (GeneID 38400) #1, mean viability with MMS: 3.68e6
For “viability with MMS, replicate 1”, 140up (GeneID 41720) reads 3.99e6
CG4627 (GeneID 36457), viability with MMS, replicate 1: 3.87e6
For “viability with MMS, replicate 1”, mirr (GeneID 39441) reads 4.08e6
CG1894 (GeneID 43378), viability with MMS, replicate 1 → 4.02e6

The list goes on.
| Gene | reagent no. | mean viability with MMS | viability with MMS, replicate 1 |
| --- | --- | --- | --- |
| CG14490 (GeneID 37041) | 1 | 3.64e6 | 4.03e6 |
| eIF2A (GeneID 40431) | 1 | 3.56e6 | 4.05e6 |
| yellow-g2 (GeneID 38295) | 1 | 3.57e6 | 3.98e6 |
| Irk2 (GeneID 42770) | 1 | 3.71e6 | 4.18e6 |
| Pvf2 (GeneID 33994) | 1 | 1.69e6 | 3.78e6 |
| Pvf2 (GeneID 33994) | 2 | 3.21e6 | 3.55e6 |
| FANCI (GeneID 35895) | 1 | 3.61e6 | 4.08e6 |
| Tre1 (GeneID 140439) | 1 | 3.60e6 | 4.09e6 |
| Uba2 (GeneID 44496) | 1 | 3.23e6 | 3.61e6 |
| Uhg3 (GeneID 3772557) | 1 | 3.59e6 | 4.05e6 |
| CG9578 (GeneID 33018) | 1 | 3.55e6 | 4.05e6 |
| Helz (GeneID 39613) | 1 | 3.52e6 | 4.01e6 |
| CG12857 (GeneID 36642) | 1 | 3.49e6 | 4.12e6 |
| Ser7 (GeneID 31917) | 1 | 3.51e6 | 3.89e6 |
| InR (GeneID 42549) | 1 | 3.61e6 | 4.30e6 |
| ATPsyndelta (GeneID 31950) | 1 | 3.52e6 | 3.87e6 |
| Cyt-b5 (GeneID 35688) | 1 | 3.51e6 | 3.99e6 |
| SNCF (GeneID 39496) | 1 | 3.53e6 | 3.99e6 |
| Acer (GeneID 34189) | 1 | 3.64e6 | 4.32e6 |
| CG30280 (GeneID 37522) | 1 | 3.48e6 | 3.95e6 |
| CG11125 (GeneID 35669) | 1 | 3.54e6 | 4.02e6 |
| CG7275 (GeneID 39669) | 1 | 3.47e6 | 3.91e6 |
| CG4313 (GeneID 31169) | 1 | 3.63e6 | 4.05e6 |
| Septin5 (GeneID 43990) | 1 | 3.51e6 | 4.05e6 |
| SmE (GeneID 34080) | 1 | 3.11e6 | 3.58e6 |
| dbe (GeneID 33269) | 1 | 3.47e6 | 3.75e6 |
| CG34267 (GeneID 5740365) | 1 | 3.58e6 | 4.07e6 |
| Pop5 (GeneID 39915) | 1 | 3.45e6 | 3.88e6 |
| gsb (GeneID 38005) | 1 | 3.59e6 | 4.09e6 |
| CG2839 (GeneID 33244) | 1 | 3.48e6 | 3.98e6 |
| CG3513 (GeneID 33590) | 1 | 3.62e6 | 3.99e6 |
| bgcn (GeneID 47873) | 1 | 3.51e6 | 3.95e6 |
| bgcn (GeneID 47873) | 2 | 3.60e6 | 4.15e6 |
| CG14984 (GeneID 38467) | 1 | 3.53e6 | 4.01e6 |
| CG33461 (GeneID 2768840) | 1 | 3.42e6 | 3.96e6 |
| CG13028 (GeneID 2768967) | 1 | 3.57e6 | 4.06e6 |
| antr (GeneID 246647) | 1 | 3.37e6 | 3.87e6 |
| CG13722 (GeneID 38555) | 1 | 3.71e6 | 4.17e6 |
| CG13722 (GeneID 38555) | 2 | 3.60e6 | 4.00e6 |
| Uros1 (GeneID 31817) | 1 | 3.68e6 | 3.99e6 |
| CG15650 (GeneID 37373) | 1 | 3.47e6 | 3.99e6 |
| t-cup (GeneID 318986) | 1 | 3.35e6 | 3.67e6 |
